# Experimental data published in the supplement of paper PMC7824004.
# The list shows a part of the results. The data scatter; read single values as rough.
# Tested on: Candida albicans SN425
# Assay: biofilm OD600 B-score; higher = more biofilm (less inhibition)
# Details: 10 µM; assay detail: High-throughput adherence inhibition optical density biofilm assay with C. albicans SN425 in RPMI-1640/MOPS pH 7.0, 384-well plates. …
# Experimental: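 High-throughput adherence inhibition optical density biofilm assay with C. albicans SN425 in RPMI-1640/MOPS pH 7.0, 384-well plates. Compound (10 µM) was present only during the 90 min adherence step, then washed out, and the biofilm grew 24 h without compound. Biofilm was read as OD600 after removing the media. Scores are the difference from the mean in standard deviations and the plate B-score.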
row,SMILES,biofilm OD600 B-score
1,CCC(C(=O)N1CCOCC1)c1ccccc1 (stereo not given),4.9
2,CCC(C)c1c(O)nc(SCC(=O)c2ccccc2)[nH]c1=O (stereo not given),1.28
3,O=C(O)Cn1c(=O)n(CC(=O)O)c2ccccc21,0.776
4,CCCN(CCO)Cc1ccc(F)c(Br)c1,-1.65
5,COc1ccccc1NC(=O)Nc1ccccc1,0.45
6,CC(=O)Nc1c(Cl)cnn(-c2ccccc2)c1=O,0.731
7,Cn1c(NC(=O)Cc2ccc(Cl)cc2)cc(=O)n(C)c1=O,-3.16
8,COc1ccc(N2CCN(C(=O)c3cccc(OC)c3)CC2)cc1,-0.537
9,CCc1c(C)nc2cc(-c3ccc(Cl)cc3)[nH]n2c1=O,1.49
10,N#CCCN(CC(=O)O)S(=O)(=O)c1ccccc1,-1.23
11,O=C(Nc1ncn[nH]1)C1c2ccccc2Oc2ccccc21,0.626
12,COc1ccc(Cl)cc1C(=O)N1CCCCCC1,1.93
13,CSc1ccccc1C(=O)Nc1cccnc1,-0.254
14,CCOc1ccccc1N1CCN(Cc2ccsc2)CC1,1.88
15,CCN(CC)CCN(C)C1CCN(C)CC1,-2.18
16,CCC(CC)C(=O)Nc1ccc(C(C)=O)cc1,1.29
17,C=CCn1c2ccccc2n2nc(C)c(=O)nc12,4.13
18,COc1cccc(CN2CCCN(C)CC2)c1,-3.98
19,CC(=O)Nc1ccc(NS(C)(=O)=O)cc1,-2.2
20,CN(CC(O)COc1ccc(F)cc1)C1CCCCC1 (stereo not given),0.746

# Of the compounds above, these contain a carbonyl joined to an NH by a bond outside any ring:
row,SMILES,biofilm OD600 B-score
5,COc1ccccc1NC(=O)Nc1ccccc1,0.45
6,CC(=O)Nc1c(Cl)cnn(-c2ccccc2)c1=O,0.731
7,Cn1c(NC(=O)Cc2ccc(Cl)cc2)cc(=O)n(C)c1=O,-3.16
11,O=C(Nc1ncn[nH]1)C1c2ccccc2Oc2ccccc21,0.626
13,CSc1ccccc1C(=O)Nc1cccnc1,-0.254
16,CCC(CC)C(=O)Nc1ccc(C(C)=O)cc1,1.29
19,CC(=O)Nc1ccc(NS(C)(=O)=O)cc1,-2.2

# Continued.

row,SMILES,biofilm OD600 B-score
1,COc1ccc(-c2nnn(Cc3ccccc3F)n2)cc1,0.297
2,CCC(C)c1ccccc1NS(C)(=O)=O (stereo not given),-0.182
3,CCC(CO)NC(=O)C1COc2ccccc2O1 (stereo not given),-1.05
4,CC(=O)NC12CC3CC(CC(O)(C3)C1)C2,1.56
5,COc1cc(C(=O)N2CCCCC2)cc(OC)c1OC,0.107
6,COc1cccc(NC(=O)CSc2nc(C)cc(C)n2)c1,0.0198
7,CCC1CCC(NCc2cccc(OC)c2OC)CC1 (stereo not given),3.17
8,c1ccc(C(CNc2ncccn2)c2ccccc2)cc1,-0.24
9,CCN(CC)c1ccc(CN2CCSCC2)cc1,-0.305
10,Cc1nc(-c2ccccc2)cc(N2CCCC2)n1,1.56
11,C=CCNS(=O)(=O)c1ccc(NC(C)=O)cc1,0.724
12,O=C(NCc1cccnc1)c1ccc(Cl)cc1,-0.272
13,CCOc1ccc(C(C)(CC(=O)O)C(=O)O)cc1 (stereo not given),0.155
14,CC(=O)NCCc1ccc(S(=O)(=O)N(C)C)cc1,0.702
15,Cc1cc(C)n(-c2cc(NCCO)ncn2)n1,0.862
16,CCN(CC)C(=O)CSc1nc(O)cc(=O)n1-c1ccccc1C,-0.0463
17,O=C(Nc1ccc2snnc2c1)N1CCSCC1,-0.909
18,CCc1cccc(OCCCN2CCN(C)CC2)c1,0.0663
19,O=C(NC1CCCCC1)N1CCN(c2ccccc2F)CC1,2.39
20,O=S(=O)(NCc1ccco1)c1cccs1,-1.4
